Article doi:10.1101/2021.12.02.470956
No constants are given. Whether binding was seen depends on the method and setting. In cells and extracts the contact can be indirect.

Molecular target: PML (promyelocytic leukemia protein)
Assay: FRET or BRET

binding: no binding
B1: Arc (construct of the lifetime-FRET test with PML) (protein, UniProt Q9WV31 1-396)
chain: MELDHMTTGGLHAYPAPRGGPAAKPNVILQIGKCRAEMLEHVRRTHRHLLTEVSKQVERELKGLHRSVGKLENNLDGYVPTGDSQRWKKSIKACLCRCQETIANLERWVKREMHVWREVFYRLERWADRLESMGGKYPVGSEPARHTVSVGVGGPEPYCQEADGYDYTVSPYAITPPPAAGELPEQESVEAQQYQSWGPGEDGQPSPGVDTQIFEDPREFLSHLEEYLRQVGGSEEYWLSQIQNHMNGPAKKWWEFKQGSVKNWVEFKKEFLQYSEGTLSREAIQRELELPQKQGEPLDQFLWRKRDLYQTLYVDAEEEEIIQYVVGTLQPKLKRFLRHPLPKTLEQLIQRGMEVQDGLEQAAEPSGTPLPTEDETEALTPALTSESVASDRTQPE
